# Some of the results follow.
# The chains behind the UniProt entries cited, without tags or fusion partners. Where a name states a change or a piece, a line headed by the entry shows the natural chain unless it says otherwise.
# UniProt Q96G23: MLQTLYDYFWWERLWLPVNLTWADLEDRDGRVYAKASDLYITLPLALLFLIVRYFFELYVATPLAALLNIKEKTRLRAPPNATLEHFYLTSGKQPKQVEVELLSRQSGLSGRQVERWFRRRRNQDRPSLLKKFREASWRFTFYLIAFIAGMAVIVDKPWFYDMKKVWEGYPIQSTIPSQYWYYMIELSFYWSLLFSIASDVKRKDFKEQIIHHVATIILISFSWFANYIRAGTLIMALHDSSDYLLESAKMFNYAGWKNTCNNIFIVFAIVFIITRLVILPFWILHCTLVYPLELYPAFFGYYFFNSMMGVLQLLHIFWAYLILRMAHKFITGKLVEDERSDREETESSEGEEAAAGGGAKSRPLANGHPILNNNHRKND
# UniProt Q9UHN6: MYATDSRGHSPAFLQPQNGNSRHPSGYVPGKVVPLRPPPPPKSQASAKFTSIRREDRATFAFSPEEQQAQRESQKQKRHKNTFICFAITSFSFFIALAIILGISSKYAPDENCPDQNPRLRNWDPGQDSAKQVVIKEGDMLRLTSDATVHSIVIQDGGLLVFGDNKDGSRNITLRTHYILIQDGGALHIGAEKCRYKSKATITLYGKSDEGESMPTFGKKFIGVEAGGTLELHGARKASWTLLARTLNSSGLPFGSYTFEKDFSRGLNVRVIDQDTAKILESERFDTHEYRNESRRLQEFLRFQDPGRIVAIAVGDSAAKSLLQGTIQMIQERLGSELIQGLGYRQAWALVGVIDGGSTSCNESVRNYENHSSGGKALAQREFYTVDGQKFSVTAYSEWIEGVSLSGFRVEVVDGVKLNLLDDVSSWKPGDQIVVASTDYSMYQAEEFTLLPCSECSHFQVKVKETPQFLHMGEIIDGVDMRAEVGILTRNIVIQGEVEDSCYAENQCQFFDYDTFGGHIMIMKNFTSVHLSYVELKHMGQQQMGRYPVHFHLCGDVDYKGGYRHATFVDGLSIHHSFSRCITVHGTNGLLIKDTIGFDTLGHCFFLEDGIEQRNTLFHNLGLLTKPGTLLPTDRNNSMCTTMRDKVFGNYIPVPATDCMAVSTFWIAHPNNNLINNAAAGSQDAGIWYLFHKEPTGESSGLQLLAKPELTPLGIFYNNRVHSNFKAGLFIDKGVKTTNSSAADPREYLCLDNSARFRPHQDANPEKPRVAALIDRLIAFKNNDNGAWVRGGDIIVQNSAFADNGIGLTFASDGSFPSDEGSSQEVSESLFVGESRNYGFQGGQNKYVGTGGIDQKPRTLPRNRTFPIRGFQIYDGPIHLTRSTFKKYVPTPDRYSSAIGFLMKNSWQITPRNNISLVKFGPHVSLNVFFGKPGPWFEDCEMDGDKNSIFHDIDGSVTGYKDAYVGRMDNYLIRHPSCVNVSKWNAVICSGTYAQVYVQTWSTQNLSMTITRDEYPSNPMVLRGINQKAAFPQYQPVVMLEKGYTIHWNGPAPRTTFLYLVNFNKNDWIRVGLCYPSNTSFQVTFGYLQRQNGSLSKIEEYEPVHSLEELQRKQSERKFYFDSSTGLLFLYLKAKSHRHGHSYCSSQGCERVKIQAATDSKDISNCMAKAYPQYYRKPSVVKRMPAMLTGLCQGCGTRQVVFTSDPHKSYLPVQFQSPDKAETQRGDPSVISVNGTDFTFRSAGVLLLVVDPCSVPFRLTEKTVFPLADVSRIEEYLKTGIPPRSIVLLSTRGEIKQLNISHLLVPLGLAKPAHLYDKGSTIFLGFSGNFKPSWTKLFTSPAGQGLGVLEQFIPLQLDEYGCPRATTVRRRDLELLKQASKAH
# UniProt O15078: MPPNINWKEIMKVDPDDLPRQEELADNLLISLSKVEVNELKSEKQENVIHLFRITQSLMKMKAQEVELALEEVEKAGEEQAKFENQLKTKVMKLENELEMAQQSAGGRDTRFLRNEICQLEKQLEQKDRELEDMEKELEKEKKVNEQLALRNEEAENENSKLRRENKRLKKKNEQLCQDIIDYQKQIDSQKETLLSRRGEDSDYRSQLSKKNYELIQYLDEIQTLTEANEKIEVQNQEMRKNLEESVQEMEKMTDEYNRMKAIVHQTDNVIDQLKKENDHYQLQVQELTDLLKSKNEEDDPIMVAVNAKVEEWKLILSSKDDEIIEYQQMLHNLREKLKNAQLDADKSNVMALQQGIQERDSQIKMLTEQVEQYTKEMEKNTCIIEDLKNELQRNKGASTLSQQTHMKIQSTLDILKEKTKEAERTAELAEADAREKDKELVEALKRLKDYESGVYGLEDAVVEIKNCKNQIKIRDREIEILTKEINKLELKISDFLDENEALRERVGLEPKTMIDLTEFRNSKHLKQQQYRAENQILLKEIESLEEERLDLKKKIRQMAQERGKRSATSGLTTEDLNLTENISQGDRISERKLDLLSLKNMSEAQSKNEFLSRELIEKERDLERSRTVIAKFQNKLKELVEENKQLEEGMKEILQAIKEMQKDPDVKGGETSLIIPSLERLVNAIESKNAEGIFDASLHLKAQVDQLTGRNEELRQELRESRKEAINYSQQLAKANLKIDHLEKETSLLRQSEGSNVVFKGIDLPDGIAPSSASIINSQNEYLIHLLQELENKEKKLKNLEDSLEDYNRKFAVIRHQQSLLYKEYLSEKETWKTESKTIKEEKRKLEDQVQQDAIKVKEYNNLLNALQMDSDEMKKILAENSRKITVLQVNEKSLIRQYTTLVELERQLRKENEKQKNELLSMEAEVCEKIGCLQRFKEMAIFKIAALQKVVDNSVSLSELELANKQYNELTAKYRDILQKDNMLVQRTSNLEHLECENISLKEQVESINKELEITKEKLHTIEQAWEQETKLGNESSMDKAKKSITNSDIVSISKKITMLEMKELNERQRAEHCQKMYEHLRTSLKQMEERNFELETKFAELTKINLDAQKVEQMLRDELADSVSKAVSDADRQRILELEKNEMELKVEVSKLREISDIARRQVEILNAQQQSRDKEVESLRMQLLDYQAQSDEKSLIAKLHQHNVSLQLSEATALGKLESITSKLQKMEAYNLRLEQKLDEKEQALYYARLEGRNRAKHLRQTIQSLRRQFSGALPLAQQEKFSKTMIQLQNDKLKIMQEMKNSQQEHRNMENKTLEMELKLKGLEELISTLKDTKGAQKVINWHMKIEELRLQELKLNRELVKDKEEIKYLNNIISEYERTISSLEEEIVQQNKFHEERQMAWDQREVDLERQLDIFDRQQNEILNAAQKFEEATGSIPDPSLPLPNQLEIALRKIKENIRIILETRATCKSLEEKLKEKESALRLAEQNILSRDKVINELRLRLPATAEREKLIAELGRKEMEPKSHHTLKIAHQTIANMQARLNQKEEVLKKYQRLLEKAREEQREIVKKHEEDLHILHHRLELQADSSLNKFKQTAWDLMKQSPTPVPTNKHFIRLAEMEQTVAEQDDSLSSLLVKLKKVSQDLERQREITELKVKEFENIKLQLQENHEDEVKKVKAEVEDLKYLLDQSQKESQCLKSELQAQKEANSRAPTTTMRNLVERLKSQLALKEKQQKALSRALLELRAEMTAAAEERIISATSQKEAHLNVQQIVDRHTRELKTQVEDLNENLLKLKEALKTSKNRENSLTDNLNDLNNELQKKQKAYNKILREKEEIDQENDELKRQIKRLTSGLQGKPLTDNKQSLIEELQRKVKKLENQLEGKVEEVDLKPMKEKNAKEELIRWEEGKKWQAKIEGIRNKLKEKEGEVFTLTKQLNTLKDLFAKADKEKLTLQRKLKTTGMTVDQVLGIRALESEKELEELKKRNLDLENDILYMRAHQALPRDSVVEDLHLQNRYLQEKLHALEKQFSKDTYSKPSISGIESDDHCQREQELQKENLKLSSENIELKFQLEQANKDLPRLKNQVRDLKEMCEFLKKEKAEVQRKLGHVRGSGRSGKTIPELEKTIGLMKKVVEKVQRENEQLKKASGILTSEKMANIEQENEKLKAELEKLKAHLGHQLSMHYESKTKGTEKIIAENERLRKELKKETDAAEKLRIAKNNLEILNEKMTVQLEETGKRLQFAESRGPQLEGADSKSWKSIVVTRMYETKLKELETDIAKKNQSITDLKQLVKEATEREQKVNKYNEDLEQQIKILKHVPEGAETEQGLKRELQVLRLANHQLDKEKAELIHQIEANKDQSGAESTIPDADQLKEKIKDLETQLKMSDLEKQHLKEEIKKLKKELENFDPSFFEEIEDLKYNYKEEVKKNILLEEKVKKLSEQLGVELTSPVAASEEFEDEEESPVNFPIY
# UniProt Q9H3Q1: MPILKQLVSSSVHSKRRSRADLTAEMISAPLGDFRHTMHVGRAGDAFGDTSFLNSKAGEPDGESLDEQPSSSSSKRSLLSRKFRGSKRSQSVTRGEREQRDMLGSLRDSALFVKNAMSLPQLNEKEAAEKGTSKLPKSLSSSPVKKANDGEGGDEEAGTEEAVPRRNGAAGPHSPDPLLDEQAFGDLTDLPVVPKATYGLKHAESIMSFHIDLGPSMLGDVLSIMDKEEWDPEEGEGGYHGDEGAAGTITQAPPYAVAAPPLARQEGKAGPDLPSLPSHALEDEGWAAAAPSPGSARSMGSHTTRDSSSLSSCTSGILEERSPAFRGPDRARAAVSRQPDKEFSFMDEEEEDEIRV
# UniProt Q9Y6K0: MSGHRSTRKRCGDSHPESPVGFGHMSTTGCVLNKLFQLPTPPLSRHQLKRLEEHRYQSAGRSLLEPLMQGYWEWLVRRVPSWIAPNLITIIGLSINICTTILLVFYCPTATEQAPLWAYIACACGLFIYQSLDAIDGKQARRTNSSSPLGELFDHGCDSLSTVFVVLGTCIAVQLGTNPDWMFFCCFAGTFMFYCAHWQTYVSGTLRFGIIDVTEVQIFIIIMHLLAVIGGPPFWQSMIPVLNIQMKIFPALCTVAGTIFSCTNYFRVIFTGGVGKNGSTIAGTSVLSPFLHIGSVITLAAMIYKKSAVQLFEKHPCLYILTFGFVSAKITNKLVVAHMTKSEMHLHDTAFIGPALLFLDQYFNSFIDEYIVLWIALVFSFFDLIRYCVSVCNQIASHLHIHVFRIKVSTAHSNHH
# UniProt Q13042, whole entry, looked up: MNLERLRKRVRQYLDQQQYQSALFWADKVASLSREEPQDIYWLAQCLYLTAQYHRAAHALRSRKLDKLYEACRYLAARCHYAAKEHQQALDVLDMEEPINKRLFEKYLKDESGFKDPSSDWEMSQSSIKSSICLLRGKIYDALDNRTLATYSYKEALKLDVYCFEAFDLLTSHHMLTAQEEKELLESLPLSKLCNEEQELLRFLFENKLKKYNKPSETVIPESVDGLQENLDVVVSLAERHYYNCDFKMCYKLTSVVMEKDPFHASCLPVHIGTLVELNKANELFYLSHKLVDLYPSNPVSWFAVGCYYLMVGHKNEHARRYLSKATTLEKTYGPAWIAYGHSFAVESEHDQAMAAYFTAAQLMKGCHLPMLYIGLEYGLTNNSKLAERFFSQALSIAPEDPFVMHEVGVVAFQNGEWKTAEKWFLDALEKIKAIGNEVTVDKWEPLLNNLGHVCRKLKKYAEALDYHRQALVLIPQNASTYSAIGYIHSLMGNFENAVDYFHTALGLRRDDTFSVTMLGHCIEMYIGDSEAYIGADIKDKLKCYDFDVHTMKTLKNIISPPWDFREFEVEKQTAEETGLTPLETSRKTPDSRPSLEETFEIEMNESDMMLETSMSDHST
# UniProt Q16543: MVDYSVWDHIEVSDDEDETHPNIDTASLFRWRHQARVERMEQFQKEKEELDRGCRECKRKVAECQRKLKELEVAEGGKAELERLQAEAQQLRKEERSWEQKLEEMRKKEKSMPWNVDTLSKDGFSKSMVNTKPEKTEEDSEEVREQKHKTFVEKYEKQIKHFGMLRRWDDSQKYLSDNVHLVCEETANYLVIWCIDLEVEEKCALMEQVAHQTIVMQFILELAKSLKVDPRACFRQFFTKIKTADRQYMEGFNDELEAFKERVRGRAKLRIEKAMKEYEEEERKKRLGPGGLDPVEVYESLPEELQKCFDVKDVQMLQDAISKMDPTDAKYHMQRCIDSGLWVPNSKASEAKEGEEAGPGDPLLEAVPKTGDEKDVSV
# UniProt O00311: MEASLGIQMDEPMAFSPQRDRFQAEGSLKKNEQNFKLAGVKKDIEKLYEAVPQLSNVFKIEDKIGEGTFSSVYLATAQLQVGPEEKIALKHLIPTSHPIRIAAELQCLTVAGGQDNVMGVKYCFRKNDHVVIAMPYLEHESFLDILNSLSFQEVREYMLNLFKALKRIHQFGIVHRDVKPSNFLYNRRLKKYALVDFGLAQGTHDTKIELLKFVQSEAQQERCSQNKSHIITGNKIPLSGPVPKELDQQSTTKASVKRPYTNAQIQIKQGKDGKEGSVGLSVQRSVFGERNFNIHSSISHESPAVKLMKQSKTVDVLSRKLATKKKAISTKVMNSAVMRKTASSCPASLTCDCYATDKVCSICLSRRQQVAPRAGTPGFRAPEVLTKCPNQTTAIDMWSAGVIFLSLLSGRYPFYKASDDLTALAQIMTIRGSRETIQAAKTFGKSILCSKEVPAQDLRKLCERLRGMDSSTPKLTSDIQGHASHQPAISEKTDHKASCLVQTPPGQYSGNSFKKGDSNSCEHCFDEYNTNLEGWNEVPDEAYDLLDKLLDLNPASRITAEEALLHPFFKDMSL
# Legend:
# Assay in all cases: log2 fold change, soluble protein after heating vs DMSO (PISA); higher = thermal stabilisation; K562 lysate, 10 uM; active = over 0.2 and 3.5 SD of the protein, either way, in both replicates (recomputed)
# lapatinib = compound: CS(=O)(=O)CCNCc1ccc(-c2ccc3ncnc(Nc4ccc(OCc5cccc(F)c5)c(Cl)c4)c3c2)o1 [lapatinib]
# Method in brief: (§1)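 Following dounce homogenisation of K562 pellets in PBS pH 7.4 with 1 mM MgCl2, crude extract at 1 mg/mL protein was incubated for 30 min with 10 μM compound. Aliquots were then heated for 3 min over 48°C-58°C and pooled, NP-40 was added to 0.5% at 4°C, and soluble protein was recovered as the supernatant at 21,000xg for 90 min. Channel-sum-equalised TMTpro 16plex LC-MS/MS quantified this protein. Each value, from duplicates, is a log-two fold change in thermal stability relative to solvent controls.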
# pictilisib = compound: CS(=O)(=O)N1CCN(Cc2cc3nc(-c4cccc5[nH]ncc45)nc(N4CCOCC4)c3s2)CC1 [pictilisib]
# Method in brief: as §1
# crizotinib = compound: C[C@@H](Oc1cc(-c2cnn(C3CCNCC3)c2)cnc1N)c1c(Cl)ccc(F)c1Cl [crizotinib]
# Method in brief: as §1
# [1] = compound: C[C@H](C1=CC=C(C=C1)C(=O)NC2=C3C=CNC3=NC=C2)N
# Method in brief: as §1
# duvelisib = compound: C[C@H](Nc1ncnc2nc[nH]c12)c1cc2cccc(Cl)c2c(=O)n1-c1ccccc1 [duvelisib]
# Method in brief: as §1
# gandotinib = compound: Cc1cc(Nc2cc(CN3CCOCC3)c3nc(C)c(Cc4ccc(Cl)cc4F)n3n2)n[nH]1 [gandotinib]
# Method in brief: as §1
# tozasertib = compound: Cc1cc(Nc2cc(N3CCN(C)CC3)nc(Sc3ccc(NC(=O)C4CC4)cc3)n2)n[nH]1 [tozasertib]
# Method in brief: as §1
# doramapimod = compound: Cc1ccc(-n2nc(C(C)(C)C)cc2NC(=O)Nc2ccc(OCCN3CCOCC3)c3ccccc23)cc1 [doramapimod]
# Method in brief: as §1
# bafetinib = compound: Cc1ccc(NC(=O)c2ccc(CN3CC[C@H](N(C)C)C3)c(C(F)(F)F)c2)cc1Nc1nccc(-c2cncnc2)n1 [bafetinib]
# Method in brief: as §1
# [2] = compound: Cc1cccc(CC(=O)N2CCc3c2ccc(-c2cn(C)c4ncnc(N)c24)c3F)n1
# Method in brief: as §1
# nilotinib = compound: Cc1cn(-c2cc(NC(=O)c3ccc(C)c(Nc4nccc(-c5cccnc5)n4)c3)cc(C(F)(F)F)c2)cn1 [nilotinib]
# Method in brief: as §1
# [3] = compound: Cc1nc(Nc2n[nH]c3c2CN(C(=O)N[C@H](CN(C)C)c2ccccc2)C3(C)C)c2sccc2n1
# Method in brief: as §1
# dasatinib = compound: Cc1nc(Nc2ncc(C(=O)Nc3c(C)cccc3Cl)s2)cc(N2CCN(CCO)CC2)n1 [dasatinib]
# Method in brief: as §1
# [4] = compound: Cc1ncc(-c2ccnc(Nc3ccc(S(C)(=O)=O)cc3)n2)n1C(C)C
# Method in brief: as §1
# [5] = compound: Cn1cc(-c2ccc3c(c2)CCN3C(=O)Cc2cccc(C(F)(F)F)c2)c2c(N)ncnc21
# Method in brief: as §1
# quisinostat = compound: Cn1cc(CNCC2CCN(c3ncc(C(=O)NO)cn3)CC2)c2ccccc21 [quisinostat]
# Method in brief: as §1
# tipifarnib = compound: Cn1cncc1[C@@](N)(c1ccc(Cl)cc1)c1ccc2c(c1)c(-c1cccc(Cl)c1)cc(=O)n2C [tipifarnib]
# Method in brief: as §1
# [6] = compound: NC(=O)Nc1cc(-c2cccc(F)c2)sc1C(=O)N[C@H]1CCCNC1
# Method in brief: as §1
# [7] = compound: NC(=O)c1cnc(N[C@@H]2CCCC[C@@H]2N)nc1Nc1cccc(-n2nccn2)c1
# Method in brief: as §1
# [8] = compound: NC1(c2ccc(-c3nc4ccn5c(=O)[nH]nc5c4cc3-c3ccccc3)cc2)CCC1
# Method in brief: as §1
Target,log2 fold change (lapatinib),log2 fold change (pictilisib),log2 fold change (crizotinib),log2 fold change [1],log2 fold change (duvelisib),log2 fold change (gandotinib),log2 fold change (tozasertib),log2 fold change (doramapimod),log2 fold change (bafetinib),log2 fold change [2],log2 fold change (nilotinib),log2 fold change [3],log2 fold change (dasatinib),log2 fold change [4],log2 fold change [5],log2 fold change (quisinostat),log2 fold change (tipifarnib),log2 fold change [6],log2 fold change [7],log2 fold change [8]
CDCP1 (UniProt Q9H5V8),inactive: -0.009,inactive: -0.063,inactive: 0.005,inactive: -0.017,inactive: -0.02,inactive: 0.019,inactive: -0.013,inactive: 0.003,inactive: -0.03,inactive: 0.045,inactive: -0.025,inactive: -0.039,inactive: 0.017,inactive: 0.003,inactive: 0.01,inactive: -0.068,inactive: -0.029,inactive: 0.017,inactive: 0.009,inactive: -0.001
CERS2 (UniProt Q96G23),inactive: -0.158,inactive: 0.02,inactive: 0.033,inactive: -0.009,inactive: -0.041,inactive: -0.139,inactive: -0.017,inactive: -0.015,inactive: -0.047,inactive: -0.094,inactive: -0.016,inactive: -0.022,inactive: 0.056,inactive: -0.042,inactive: -0.057,inactive: -0.125,inactive: 0.016,inactive: 0.023,inactive: 0,inactive: -0.06
CDC123 (UniProt O75794),inactive: 0.016,inactive: -0.011,inactive: -0.012,inactive: 0.032,inactive: 0.02,active: 0.335,inactive: -0.022,inactive: -0.032,inactive: -0.049,inactive: -0.048,inactive: 0.026,inactive: -0.011,inactive: -0.006,inactive: -0.104,inactive: 0.033,inactive: 0.008,inactive: -0.008,inactive: 0.022,inactive: -0.009,inactive: 0.017
CDC26 (UniProt Q8NHZ8),inactive: 0.011,inactive: -0.068,inactive: -0.056,inactive: -0.001,inactive: 0.049,inactive: 0.108,inactive: 0.06,inactive: 0.131,inactive: -0.063,inactive: 0.089,inactive: -0.025,inactive: -0.051,inactive: 0.027,inactive: -0.029,inactive: 0.058,inactive: -0.117,inactive: 0.038,inactive: -0.016,inactive: 0.011,inactive: 0.008
CEMIP2 (UniProt Q9UHN6),inactive: -0.098,inactive: -0.069,inactive: 0.006,inactive: -0.087,inactive: 0.022,inactive: 0.067,inactive: -0.037,inactive: 0.001,inactive: 0.005,inactive: -0.042,–,–,inactive: 0.014,–,inactive: -0.052,inactive: -0.061,–,inactive: 0.02,inactive: 0.009,inactive: -0.019
CEP120 (UniProt Q8N960),inactive: -0.076,inactive: -0.007,inactive: -0.034,inactive: -0.105,inactive: 0.005,inactive: 0.016,inactive: -0.096,inactive: 0.107,inactive: -0.257,inactive: 0.129,active: 0.524,inactive: -0.186,inactive: 0,inactive: -0.251,inactive: -0.001,inactive: -0.067,inactive: 0.16,inactive: 0.013,inactive: 0.024,inactive: -0.151
CEP290 (UniProt O15078),inactive: -0.01,inactive: -0.046,inactive: -0.072,inactive: -0.041,inactive: 0.066,inactive: -0.054,inactive: 0.098,inactive: 0.079,inactive: 0.001,inactive: 0.03,inactive: -0.023,inactive: -0.008,inactive: -0.063,inactive: -0.051,inactive: -0.018,inactive: -0.071,inactive: 0.055,inactive: -0.019,inactive: 0.001,inactive: 0.126
CDC42EP4 (UniProt Q9H3Q1),inactive: 0.031,inactive: 0.029,inactive: -0.017,inactive: -0.047,inactive: -0.029,active: 0.223,inactive: -0.017,inactive: 0.157,inactive: -0.027,inactive: 0.102,inactive: 0.061,inactive: -0.043,inactive: 0.039,inactive: -0.026,inactive: -0.028,inactive: -0.045,inactive: 0.006,inactive: -0.02,inactive: -0.025,inactive: 0.02
CEPT1 (UniProt Q9Y6K0),inactive: -0.121,inactive: -0.08,inactive: -0.122,inactive: -0.106,inactive: -0.019,inactive: -0.058,inactive: 0.025,inactive: -0.07,inactive: -0.124,active: 0.223,inactive: -0.053,inactive: -0.015,inactive: -0.018,inactive: 0.028,inactive: 0.06,inactive: -0.021,inactive: -0.068,inactive: 0.028,inactive: -0.008,inactive: -0.094
CDK11A (UniProt Q9UQ88),inactive: 0.104,inactive: -0.02,inactive: 0.092,inactive: 0.049,inactive: -0.003,inactive: 0.122,–,inactive: -0.072,inactive: -0.033,inactive: -0.093,inactive: -0.007,inactive: 0.053,inactive: -0.016,inactive: 0.085,inactive: -0.001,inactive: -0.031,inactive: -0.029,inactive: 0.035,inactive: -0.029,inactive: -0.034
CDK7 (UniProt P50613),inactive: -0.007,inactive: -0.017,inactive: -0.014,inactive: -0.034,inactive: 0.028,inactive: 0.108,inactive: 0.023,inactive: -0.036,inactive: -0.011,inactive: 0.043,inactive: -0.011,inactive: 0.155,inactive: -0.009,inactive: -0.026,inactive: -0.049,inactive: 0.051,inactive: 0.03,inactive: 0.008,inactive: -0.009,inactive: -0.014
CDKN1B (UniProt P46527),inactive: 0.083,inactive: -0.043,inactive: 0.139,inactive: 0.047,inactive: -0.06,inactive: -0.161,inactive: -0.005,inactive: -0.04,inactive: -0.106,inactive: -0.059,–,–,inactive: 0.021,–,inactive: 0.034,active: 0.393,–,inactive: -0.122,inactive: -0.035,inactive: 0.045
CDC16 (UniProt Q13042),inactive: 0.016,inactive: 0,inactive: 0.009,inactive: 0.047,inactive: 0.011,inactive: -0.095,inactive: 0.06,inactive: 0.014,inactive: -0.039,inactive: -0.057,inactive: -0.013,inactive: 0.023,inactive: -0.012,inactive: -0.027,inactive: 0.019,inactive: 0.01,inactive: 0.017,inactive: 0.024,inactive: -0.019,inactive: -0.014
CDC37 (UniProt Q16543),inactive: 0.012,inactive: 0.01,inactive: 0.05,inactive: 0.019,inactive: -0.013,inactive: 0.001,inactive: -0.01,inactive: -0.042,inactive: 0.004,inactive: -0.07,inactive: -0.009,inactive: 0.01,inactive: 0.02,inactive: 0.017,inactive: -0.018,inactive: 0.088,inactive: 0.025,inactive: -0.032,inactive: -0.031,inactive: 0.013
CDCA2 (UniProt Q69YH5),inactive: -0.008,inactive: -0.001,inactive: 0.002,inactive: 0.014,inactive: -0.01,inactive: 0.017,inactive: 0.097,inactive: -0.014,inactive: -0.073,inactive: -0.027,inactive: 0.076,inactive: -0.09,inactive: -0.009,inactive: 0.018,inactive: -0.065,inactive: 0.012,inactive: -0.14,inactive: -0.002,inactive: 0.048,inactive: -0.183
CDC7 (UniProt O00311),inactive: 0.112,inactive: -0.067,inactive: -0.024,active: -0.335,inactive: -0.007,inactive: 0.047,inactive: -0.01,inactive: 0.06,inactive: 0.009,inactive: 0.087,inactive: -0.049,inactive: 0.028,inactive: 0.029,inactive: 0.059,inactive: 0.001,inactive: -0.047,inactive: -0.009,inactive: 0.015,inactive: -0.022,inactive: -0.016
CDC73 (UniProt Q6P1J9),inactive: 0.01,inactive: -0.008,inactive: -0.005,inactive: 0.063,inactive: 0.023,inactive: -0.082,inactive: 0.014,inactive: 0.026,inactive: -0.029,inactive: -0.031,inactive: -0.037,inactive: 0.002,inactive: -0.019,inactive: -0.022,inactive: 0.012,inactive: 0.009,inactive: 0,inactive: 0.033,inactive: 0.022,inactive: -0.007

# Record cards, from the list above. Values in the order: log2 fold change (lapatinib)	log2 fold change (pictilisib)	log2 fold change (crizotinib)	log2 fold change [1]	log2 fold change (duvelisib)	log2 fold change (gandotinib)	log2 fold change (tozasertib)	log2 fold change (doramapimod)	log2 fold change (bafetinib)	log2 fold change [2]	log2 fold change (nilotinib)	log2 fold change [3]	log2 fold change (dasatinib)	log2 fold change [4]	log2 fold change [5]	log2 fold change (quisinostat)	log2 fold change (tipifarnib)	log2 fold change [6]	log2 fold change [7]	log2 fold change [8]
# CDC37 (UniProt Q16543) is listed as inactive: 0.012	inactive: 0.01	inactive: 0.05	inactive: 0.019	inactive: -0.013	inactive: 0.001	inactive: -0.01	inactive: -0.042	inactive: 0.004	inactive: -0.07	inactive: -0.009	inactive: 0.01	inactive: 0.02	inactive: 0.017	inactive: -0.018	inactive: 0.088	inactive: 0.025	inactive: -0.032	inactive: -0.031	inactive: 0.013
# CDKN1B (UniProt P46527) is listed as inactive: 0.083	inactive: -0.043	inactive: 0.139	inactive: 0.047	inactive: -0.06	inactive: -0.161	inactive: -0.005	inactive: -0.04	inactive: -0.106	inactive: -0.059	–	–	inactive: 0.021	–	inactive: 0.034	active: 0.393	–	inactive: -0.122	inactive: -0.035	inactive: 0.045
